This note sets out measurements from the supplement of paper PMC5662767.

Each structure is given as a SMILES string. Where a name gives a salt, the structure may show the parent alone. Some of the results follow. Part of the spread comes from offsets between plates or batches.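 A clonal Drosophila S2 line expresses Smoothened bearing circularly permuted GFP in its cytoplasmic tail; Hh-driven phosphorylation opens an inhibitory loop, making it fluoresce. Flow cytometry measured per-cell fluorescence, normalized to Hh-stimulated untreated cells. Hits were inhibitor groups with shared pathway targets that consistently shifted fluorescence, not individual compounds.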

For the test, the system named is Drosophila S2 cl14 SmoIP sensor cells. Nature of the test: normalized SmoIP GFP fluorescence (untreated unstimulated = 0%, untreated Hh-stimulated = 100%); higher = more Smo activation sensor fluorescence. The conditions noted are these: compound concentration: 15 uM, 24 h.
The mark [1] stands for this setting: stimulation: Hh conditioned medium (+Hh).
Where [2] appears, read: stimulation: mock conditioned medium (-Hh).

Take `Oc1ccc(/C=C/c2cc(O)cc(O)c2)cc1` [Resveratrol]: the “normalized SmoIP GFP fluorescence” value under setting [1] is 125% and the “normalized SmoIP GFP fluorescence” value under setting [2] worked out at 6.74%.
Regarding `CNC(=O)c1ccc2cc([C@@]3(O)CCn4cncc43)ccc2c1`, the “normalized SmoIP GFP fluorescence” value runs as follows: under setting [1], 164%; under setting [2], 24.6%.
`COc1ccc(C2CNC(=O)C2)cc1OC1CCCC1` (configuration not stated) [Rolipram]: the “normalized SmoIP GFP fluorescence” value reads like this: under setting [1], 141%; under setting [2], -2.64%.
The corresponding values for `CN(C)Cc1ccc(-c2nc3cccc4c3n2CCNC4=O)cc1` are 170% and -4.08%.
The like results for `CCn1c(-c2nonc2N)nc2c(C#CC(C)(C)O)ncc(OC[C@H]3CCCNC3)c21` were, in that order, 95.2% and -5.22%.
Turning to `CNC(=O)c1cccc(-c2ccc3c(N4CCOC[C@@H]4C)nc(N4CCOC[C@@H]4C)nc3n2)c1`, the “normalized SmoIP GFP fluorescence” value by setting is: under setting [1], 171%; under setting [2], 39.5%.
The corresponding values for `CC(C)C[C@@H](C(=O)N[C@H](C(=O)OC1CCCC1)c1ccccc1)[C@H](O)C(=O)NO` [CHR-2797(Tosedostat)] are 142% and 13.3%.
The like results for `Cc1ccc(C(=O)NCCCCCC(=O)Nc2ccccc2N)cc1` [rg2833-rgfp109] were, in that order, 122% and 6.38%.
Take `Oc1ccc(Nc2nc(-c3ccc(Cl)cc3)cs2)cc1`: the “normalized SmoIP GFP fluorescence” value reads like this: under setting [1], 52.1%; under setting [2], 44.8%.
On to `O=C(c1cc(Cc2n[nH]c(=O)c3ccccc23)ccc1F)N1CCN(C(=O)C2CC2)CC1` [AZD2281(Olaparib)], for which the “normalized SmoIP GFP fluorescence” value is, setting by setting: under setting [1], 158%; under setting [2], 16.8%.
Consider `CN1CCN(C2=Nc3cc(Cl)ccc3Nc3ccccc32)CC1` [Clozapine(Clozaril)], for which the “normalized SmoIP GFP fluorescence” value under setting [1] was determined as 157% and the “normalized SmoIP GFP fluorescence” value under setting [2] was determined as 34.5%.
The like results for `O=C(O)CCCc1ccccc1` [sodium-phenylbutyrate] were, in that order, 119% and 0.361%.
Consider `CN(C)C(=O)c1ccc(S(=O)(=O)c2ccc(NC(=O)[C@@](C)(O)C(F)(F)F)c(Cl)c2)cc1`, for which the “normalized SmoIP GFP fluorescence” value is 164% under setting [1] and 23.8% under setting [2].
The like results for `CCN1CCCC1CNC(=O)c1cc(S(=O)(=O)CC)c(N)cc1OC` (configuration not stated) [Amisulpride] were, in that order, 139% and 1.35%.
The corresponding values for `NC(=O)c1cnc(N[C@@H]2CCCC[C@@H]2N)nc1Nc1cccc(-n2nccn2)c1` are 253% and 51.5%.
The like results for `O=C(O)COCCN1CCN(C(c2ccccc2)c2ccc(Cl)cc2)CC1` (configuration not stated) [Cetirizine-di-hcl] were, in that order, 131% and 5.12%.
For the compound `C[C@]12CCC3=C4CCC(=O)C=C4CC[C@H]3[C@@H]1CC[C@@]2(O)CC#N` [Dienogest], the “normalized SmoIP GFP fluorescence” value came to 158% under setting [1] and 3.18% under setting [2].
Take `CC(C)CC(=O)Nc1n[nH]c2c1CN(C(=O)C1CCN(C)CC1)C2(C)C`: the “normalized SmoIP GFP fluorescence” value runs as follows: under setting [1], 90.8%; under setting [2], 59.4%.
The like results for `CC(C)(Oc1ccc(C2CC2(Cl)Cl)cc1)C(=O)O` (configuration not stated) [ciprofibrate] were, in that order, 127% and -12.7%.
The corresponding values for `CNC(CC(=O)O)C(=O)O` (stereo not drawn) [nmda-n-methyl-d-aspartic-acid] are 112% and -2.2%.
The like results for `O=C(COc1cccc2c(=O)[nH]ccc12)c1ccccc1` were, in that order, 226% and 39%.
`CO[C@H]1C[C@@H]2CC[C@@H](C)[C@@](O)(O2)C(=O)C(=O)N2CCCC[C@H]2C(=O)O[C@H]([C@H](C)C[C@@H]2CC[C@@H](O)[C@H](OC)C2)CC(=O)[C@H](C)/C=C(\C)[C@@H](O)[C@@H](OC)C(=O)[C@H](C)C[C@H](C)/C=C/C=C/C=C/1C` [Rapamycin]: the “normalized SmoIP GFP fluorescence” value was found to be 94.3% under setting [1] and 38.5% under setting [2].
Turning to `CCc1cccc(CC)c1NC(=O)N1Cc2[nH]nc(NC(=O)c3ccc(N4CCN(C)CC4)cc3)c2C1`, the “normalized SmoIP GFP fluorescence” value under setting [1] was 170% and the “normalized SmoIP GFP fluorescence” value under setting [2] was determined as 10.4%.
For `COCC[n+]1c2c(n(Cc3cnccn3)c1C)C(=O)c1ccccc1C2=O`, the “normalized SmoIP GFP fluorescence” value worked out at 143% under setting [1] and 11.2% under setting [2].
Consider `O=C(c1ccc(OCCN2CCCCC2)cc1)c1c(-c2ccc(O)cc2)sc2cc(O)ccc12` [Evista], for which the “normalized SmoIP GFP fluorescence” value under setting [1] turned out to be 156% and the “normalized SmoIP GFP fluorescence” value under setting [2] came out at 60.6%.
Regarding `CCCCc1nc(Cl)c(CO)n1Cc1ccc(-c2ccccc2-c2nnn[nH]2)cc1` [losartan-potassium], the “normalized SmoIP GFP fluorescence” value under setting [1] was found to be 134% and the “normalized SmoIP GFP fluorescence” value under setting [2] is -0.265%.
For the compound `CC1(C)CC(=O)c2c(C(F)(F)F)nn(-c3ccc(C(N)=O)c(N[C@H]4CC[C@H](O)CC4)c3)c2C1`, the “normalized SmoIP GFP fluorescence” value runs as follows: under setting [1], 247%; under setting [2], 41%.
Consider `CCCCOc1c(C(=O)c2c(F)cc(C)cc2F)c[nH]c2nncc1-2`, for which the “normalized SmoIP GFP fluorescence” value under setting [1] was 117% and the “normalized SmoIP GFP fluorescence” value under setting [2] amounted to 18.5%.
The corresponding values for `Nc1ccc(C(=O)Nc2cccc(-c3nc(N4CCOCC4)c4oc5ncccc5c4n3)c2)cn1` are 247% and 95.2%.
The corresponding values for `CN1C(=O)C(Cc2c[nH]c3ccccc23)NC1=S` (configuration not stated) [necrostatin-1] are 185% and 41.6%.
For `CC[C@H]1OC(=O)[C@H](C)[C@@H](O[C@H]2C[C@@](C)(OC)[C@@H](O)[C@H](C)O2)[C@H](C)[C@@H](O[C@@H]2O[C@H](C)C[C@H](N(C)C)[C@H]2O)[C@](C)(OC)C[C@@H](C)C(=O)[C@H](C)[C@@H](O)[C@]1(C)O` [clarithromycin], the “normalized SmoIP GFP fluorescence” value was 146% under setting [1] and -2.82% under setting [2].
The like results for `Cn1nnc2c(C(N)=O)ncn2c1=O` [Methazolastone] were, in that order, 122% and -1.34%.
As to `Cc1ccc(C(=O)Nc2cccc(C(F)(F)F)c2)cc1Nc1nc(-c2cccnc2)nc2c1cnn2C`, the “normalized SmoIP GFP fluorescence” value was determined as 105% under setting [1] and 31% under setting [2].
With `Cc1cnc(NC(=O)Nc2cc(Br)c(C)cc2OC[C@@H]2CNCCO2)cn1`, the “normalized SmoIP GFP fluorescence” value is, setting by setting: under setting [1], 176%; under setting [2], 56.5%.
Take `COc1cc2c(cc1OC)CN(CCc1ccc(NC(=O)c3cc(OC)c(OC)cc3NC(=O)c3cnc4ccccc4c3)cc1)CC2` [tariquidar]: the “normalized SmoIP GFP fluorescence” value under setting [1] amounted to 152% and the “normalized SmoIP GFP fluorescence” value under setting [2] was 34%.
In the case of `CCOC(=O)c1ccc(OC(=O)CCCCCNC(=N)N)cc1` [gabexate-mesylate], the “normalized SmoIP GFP fluorescence” value by setting is: under setting [1], 136%; under setting [2], -17.5%.
